Results reported in the supplement of paper PMC10849652.
The list shows a part of the results.

By UniProt entry, the sequences of proteins in these tests, tags left out. Where a name states a change or a piece, a line headed by the entry shows the natural chain unless it says otherwise.
UniProt Q3B726, whole entry, looked up: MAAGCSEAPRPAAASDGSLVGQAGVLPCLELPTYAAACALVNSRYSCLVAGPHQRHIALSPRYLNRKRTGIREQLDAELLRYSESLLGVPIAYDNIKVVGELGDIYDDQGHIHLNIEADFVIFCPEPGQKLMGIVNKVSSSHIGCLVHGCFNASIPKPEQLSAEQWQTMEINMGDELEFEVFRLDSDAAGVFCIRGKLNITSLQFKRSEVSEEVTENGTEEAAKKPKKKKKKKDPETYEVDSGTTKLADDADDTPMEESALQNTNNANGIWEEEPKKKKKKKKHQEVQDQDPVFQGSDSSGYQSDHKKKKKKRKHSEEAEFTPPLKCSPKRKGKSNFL
UniProt P68036, whole entry, looked up: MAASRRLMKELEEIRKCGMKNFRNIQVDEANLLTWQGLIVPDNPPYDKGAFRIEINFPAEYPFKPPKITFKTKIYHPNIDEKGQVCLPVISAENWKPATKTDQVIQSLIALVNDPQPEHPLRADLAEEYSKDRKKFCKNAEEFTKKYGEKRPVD
UniProt P15374: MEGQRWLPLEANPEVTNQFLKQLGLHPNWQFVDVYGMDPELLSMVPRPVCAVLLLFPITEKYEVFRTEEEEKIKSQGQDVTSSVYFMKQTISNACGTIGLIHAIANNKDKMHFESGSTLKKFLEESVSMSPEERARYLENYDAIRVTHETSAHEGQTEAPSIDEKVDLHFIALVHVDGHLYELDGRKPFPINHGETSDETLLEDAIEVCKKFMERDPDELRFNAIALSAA
UniProt P40222: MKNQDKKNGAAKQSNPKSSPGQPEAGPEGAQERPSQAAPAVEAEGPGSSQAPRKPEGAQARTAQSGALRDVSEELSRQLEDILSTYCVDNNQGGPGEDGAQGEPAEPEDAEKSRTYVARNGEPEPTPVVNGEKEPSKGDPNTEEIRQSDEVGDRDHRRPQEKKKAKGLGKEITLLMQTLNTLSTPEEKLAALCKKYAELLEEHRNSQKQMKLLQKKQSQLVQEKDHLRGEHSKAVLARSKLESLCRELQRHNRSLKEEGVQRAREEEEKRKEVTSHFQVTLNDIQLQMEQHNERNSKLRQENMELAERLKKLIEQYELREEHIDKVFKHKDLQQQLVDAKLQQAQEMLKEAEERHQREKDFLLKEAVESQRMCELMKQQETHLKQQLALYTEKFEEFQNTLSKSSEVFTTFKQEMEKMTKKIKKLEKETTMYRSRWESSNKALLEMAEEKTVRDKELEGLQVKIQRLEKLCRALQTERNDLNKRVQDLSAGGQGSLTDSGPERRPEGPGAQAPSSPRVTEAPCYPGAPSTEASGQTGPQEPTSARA
UniProt Q8IWV8: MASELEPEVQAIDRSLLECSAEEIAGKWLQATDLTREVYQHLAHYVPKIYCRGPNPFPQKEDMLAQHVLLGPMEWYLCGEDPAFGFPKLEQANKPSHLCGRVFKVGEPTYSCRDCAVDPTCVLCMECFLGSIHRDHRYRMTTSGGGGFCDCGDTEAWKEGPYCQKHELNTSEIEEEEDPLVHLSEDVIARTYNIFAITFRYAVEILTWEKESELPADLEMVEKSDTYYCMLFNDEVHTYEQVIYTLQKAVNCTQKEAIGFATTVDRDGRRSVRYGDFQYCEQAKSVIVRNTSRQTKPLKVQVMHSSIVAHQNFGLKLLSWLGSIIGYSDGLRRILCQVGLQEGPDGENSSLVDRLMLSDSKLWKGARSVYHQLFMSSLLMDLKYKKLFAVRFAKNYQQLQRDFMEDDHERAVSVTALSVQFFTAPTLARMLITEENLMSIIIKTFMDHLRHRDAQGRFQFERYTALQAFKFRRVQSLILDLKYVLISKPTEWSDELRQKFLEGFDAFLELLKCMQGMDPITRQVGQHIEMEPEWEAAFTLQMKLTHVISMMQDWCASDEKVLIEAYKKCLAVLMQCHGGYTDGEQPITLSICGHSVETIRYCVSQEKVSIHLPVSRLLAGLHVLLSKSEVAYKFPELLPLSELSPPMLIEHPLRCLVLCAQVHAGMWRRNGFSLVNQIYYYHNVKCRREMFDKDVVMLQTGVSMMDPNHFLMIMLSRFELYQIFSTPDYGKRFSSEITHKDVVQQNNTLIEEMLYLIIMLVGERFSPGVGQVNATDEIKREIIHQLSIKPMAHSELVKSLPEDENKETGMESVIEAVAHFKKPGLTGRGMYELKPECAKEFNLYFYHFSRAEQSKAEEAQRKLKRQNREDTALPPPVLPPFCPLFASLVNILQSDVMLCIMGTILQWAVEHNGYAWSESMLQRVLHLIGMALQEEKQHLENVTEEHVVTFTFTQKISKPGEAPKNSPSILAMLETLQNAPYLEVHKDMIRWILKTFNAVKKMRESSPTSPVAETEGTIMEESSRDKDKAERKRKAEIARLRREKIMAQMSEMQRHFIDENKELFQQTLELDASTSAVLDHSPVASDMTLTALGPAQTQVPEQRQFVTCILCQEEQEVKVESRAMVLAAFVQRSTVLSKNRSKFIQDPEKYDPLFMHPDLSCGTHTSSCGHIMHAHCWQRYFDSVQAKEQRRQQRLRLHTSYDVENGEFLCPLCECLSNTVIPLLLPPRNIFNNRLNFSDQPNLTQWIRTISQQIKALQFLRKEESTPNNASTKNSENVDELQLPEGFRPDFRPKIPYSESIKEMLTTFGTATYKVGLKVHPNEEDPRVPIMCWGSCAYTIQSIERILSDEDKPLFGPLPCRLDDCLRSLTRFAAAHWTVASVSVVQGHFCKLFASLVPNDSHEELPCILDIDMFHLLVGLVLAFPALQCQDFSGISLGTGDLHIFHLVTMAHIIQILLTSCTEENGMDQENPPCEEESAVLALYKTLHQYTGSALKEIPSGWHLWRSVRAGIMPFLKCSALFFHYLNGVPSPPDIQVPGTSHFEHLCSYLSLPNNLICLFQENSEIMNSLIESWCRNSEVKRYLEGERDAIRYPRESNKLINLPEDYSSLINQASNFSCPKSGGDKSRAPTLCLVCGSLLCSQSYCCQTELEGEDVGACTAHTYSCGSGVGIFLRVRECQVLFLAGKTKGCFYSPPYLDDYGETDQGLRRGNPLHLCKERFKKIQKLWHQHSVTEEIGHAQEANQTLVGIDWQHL
UniProt Q9NNW7, whole entry, looked up: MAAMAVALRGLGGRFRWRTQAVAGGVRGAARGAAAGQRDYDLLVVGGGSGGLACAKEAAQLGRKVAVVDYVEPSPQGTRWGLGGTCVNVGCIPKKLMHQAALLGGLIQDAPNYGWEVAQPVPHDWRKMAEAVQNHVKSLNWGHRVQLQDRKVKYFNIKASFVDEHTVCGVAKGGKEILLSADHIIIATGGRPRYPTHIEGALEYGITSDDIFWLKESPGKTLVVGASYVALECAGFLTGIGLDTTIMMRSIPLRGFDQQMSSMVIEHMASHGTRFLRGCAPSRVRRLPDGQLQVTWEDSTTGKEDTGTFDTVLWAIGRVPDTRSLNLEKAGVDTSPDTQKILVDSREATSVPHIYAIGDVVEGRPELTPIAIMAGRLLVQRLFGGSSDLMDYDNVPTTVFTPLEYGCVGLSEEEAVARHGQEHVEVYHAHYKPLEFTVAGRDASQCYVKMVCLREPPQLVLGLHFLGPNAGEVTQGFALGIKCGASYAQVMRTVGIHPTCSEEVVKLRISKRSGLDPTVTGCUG
UniProt O95155, whole entry, looked up: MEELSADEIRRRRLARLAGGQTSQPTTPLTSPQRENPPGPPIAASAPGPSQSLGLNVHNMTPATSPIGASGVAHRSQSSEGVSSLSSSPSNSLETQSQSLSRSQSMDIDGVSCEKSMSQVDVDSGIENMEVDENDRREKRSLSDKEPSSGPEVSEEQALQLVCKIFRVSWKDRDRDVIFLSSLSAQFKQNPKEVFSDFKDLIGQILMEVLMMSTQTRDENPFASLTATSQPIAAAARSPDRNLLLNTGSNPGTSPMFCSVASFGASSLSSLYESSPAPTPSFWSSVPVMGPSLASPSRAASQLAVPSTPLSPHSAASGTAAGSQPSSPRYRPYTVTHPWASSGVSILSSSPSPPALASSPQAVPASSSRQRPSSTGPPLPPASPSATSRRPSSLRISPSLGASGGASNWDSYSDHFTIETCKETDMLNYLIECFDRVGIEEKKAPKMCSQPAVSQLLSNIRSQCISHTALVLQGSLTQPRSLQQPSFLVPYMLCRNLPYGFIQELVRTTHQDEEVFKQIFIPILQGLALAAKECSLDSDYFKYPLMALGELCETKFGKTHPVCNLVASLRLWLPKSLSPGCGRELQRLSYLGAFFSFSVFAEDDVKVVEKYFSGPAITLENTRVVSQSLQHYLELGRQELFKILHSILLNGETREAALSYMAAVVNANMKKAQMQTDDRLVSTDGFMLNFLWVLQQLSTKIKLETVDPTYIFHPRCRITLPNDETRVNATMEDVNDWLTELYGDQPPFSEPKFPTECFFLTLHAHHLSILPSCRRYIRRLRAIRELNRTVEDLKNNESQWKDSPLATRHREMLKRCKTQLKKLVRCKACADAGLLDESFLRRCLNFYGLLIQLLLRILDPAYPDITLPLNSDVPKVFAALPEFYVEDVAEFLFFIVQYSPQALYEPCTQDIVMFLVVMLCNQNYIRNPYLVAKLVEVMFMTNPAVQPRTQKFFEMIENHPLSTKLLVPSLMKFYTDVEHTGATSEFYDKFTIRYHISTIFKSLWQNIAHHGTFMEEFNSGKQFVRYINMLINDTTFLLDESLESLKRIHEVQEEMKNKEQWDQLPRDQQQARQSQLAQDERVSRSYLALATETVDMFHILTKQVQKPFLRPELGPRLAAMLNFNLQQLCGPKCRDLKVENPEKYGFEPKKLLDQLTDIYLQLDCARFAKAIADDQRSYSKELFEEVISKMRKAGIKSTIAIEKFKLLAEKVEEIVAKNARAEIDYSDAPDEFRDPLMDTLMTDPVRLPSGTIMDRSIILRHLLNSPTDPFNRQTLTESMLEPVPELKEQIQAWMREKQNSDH
UniProt P07437, whole entry, looked up: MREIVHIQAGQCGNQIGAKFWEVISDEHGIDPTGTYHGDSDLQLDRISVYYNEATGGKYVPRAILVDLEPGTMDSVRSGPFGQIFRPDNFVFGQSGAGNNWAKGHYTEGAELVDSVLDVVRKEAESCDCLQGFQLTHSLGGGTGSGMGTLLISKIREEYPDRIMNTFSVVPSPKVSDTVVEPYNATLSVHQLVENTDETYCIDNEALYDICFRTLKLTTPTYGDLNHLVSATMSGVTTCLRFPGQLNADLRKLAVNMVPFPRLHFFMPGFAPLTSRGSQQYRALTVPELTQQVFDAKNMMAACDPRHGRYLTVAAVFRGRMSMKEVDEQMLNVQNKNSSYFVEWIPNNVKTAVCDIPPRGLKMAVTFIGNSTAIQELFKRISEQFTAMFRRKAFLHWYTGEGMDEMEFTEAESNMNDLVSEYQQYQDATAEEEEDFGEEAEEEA
UniProt Q04323: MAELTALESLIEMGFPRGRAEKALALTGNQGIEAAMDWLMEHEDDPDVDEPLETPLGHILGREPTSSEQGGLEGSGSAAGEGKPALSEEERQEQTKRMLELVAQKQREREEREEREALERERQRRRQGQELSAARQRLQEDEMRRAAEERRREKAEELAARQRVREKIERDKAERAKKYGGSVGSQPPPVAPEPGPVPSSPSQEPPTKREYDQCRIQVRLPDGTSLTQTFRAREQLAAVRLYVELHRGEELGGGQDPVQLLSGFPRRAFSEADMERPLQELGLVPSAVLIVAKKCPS
UniProt O14562: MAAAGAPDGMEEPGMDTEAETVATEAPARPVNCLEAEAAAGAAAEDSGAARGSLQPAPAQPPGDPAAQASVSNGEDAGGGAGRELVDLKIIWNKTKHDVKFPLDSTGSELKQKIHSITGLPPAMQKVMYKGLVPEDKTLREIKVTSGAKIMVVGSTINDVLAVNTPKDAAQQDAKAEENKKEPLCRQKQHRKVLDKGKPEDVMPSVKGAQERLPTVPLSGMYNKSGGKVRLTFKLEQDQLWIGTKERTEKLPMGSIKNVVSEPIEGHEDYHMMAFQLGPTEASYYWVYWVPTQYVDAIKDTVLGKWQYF
UniProt Q13509, whole entry, looked up: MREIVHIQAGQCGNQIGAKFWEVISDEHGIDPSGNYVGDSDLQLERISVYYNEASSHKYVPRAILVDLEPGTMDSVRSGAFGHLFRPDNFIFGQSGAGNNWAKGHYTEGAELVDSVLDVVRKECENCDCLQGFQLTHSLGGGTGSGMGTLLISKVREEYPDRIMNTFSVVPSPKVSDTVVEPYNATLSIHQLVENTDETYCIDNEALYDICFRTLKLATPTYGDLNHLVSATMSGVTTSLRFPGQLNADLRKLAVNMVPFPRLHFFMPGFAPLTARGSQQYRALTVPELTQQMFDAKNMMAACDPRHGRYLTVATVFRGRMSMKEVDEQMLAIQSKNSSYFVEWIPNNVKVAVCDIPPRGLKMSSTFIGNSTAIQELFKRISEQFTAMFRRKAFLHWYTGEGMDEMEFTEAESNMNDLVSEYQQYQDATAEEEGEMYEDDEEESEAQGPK
UniProt Q969T4: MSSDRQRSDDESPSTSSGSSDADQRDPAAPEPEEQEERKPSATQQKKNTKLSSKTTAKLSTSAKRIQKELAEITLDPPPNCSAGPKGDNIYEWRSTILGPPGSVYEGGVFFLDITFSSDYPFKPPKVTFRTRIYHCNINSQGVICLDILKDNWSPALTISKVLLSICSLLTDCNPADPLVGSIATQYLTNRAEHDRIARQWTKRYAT

compound: CC(C)(O)CC(=O)NCCn1ccc2ncnc(Nc3ccc(Oc4cccc(C(F)(F)F)c4)c(Cl)c3)c21; assay: log2 fold change, soluble protein after heating vs DMSO (PISA); higher = thermal stabilisation; K562 lysate, 10 uM; active = over 0.2 and 3.5 SD of the protein, either way, in both replicates (recomputed)
How it was run: (§1)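 K562 pellets were dounce-homogenised in PBS pH 7.4 containing 1 mM MgCl2, and the crude extract, at 1 mg/mL protein, was exposed to 10 μM compound for 30 min. Aliquots were heated for 3 min across 48°C-58°C, pooled, brought to 0.5% NP-40 at 4°C and spun at 21,000xg for 90 min, with the supernatant taken as soluble protein. TMTpro 16plex LC-MS/MS with equalised channel sums quantified that protein. Values are log-two fold changes in thermal stability relative to solvent controls, taken from duplicates.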

log2 fold change, inactive:
TXN2 (UniProt Q99757) 0.008
TWISTNB (UniProt Q3B726) -0.026
UBE2L3 isoform 3 (UniProt P68036) 0.008
UBE2R2 (UniProt Q712K3) 0.011
TXNL4A (UniProt P83876) -0.041
TXNRD1 (UniProt Q16881) -0.019
UBE2Q1 (UniProt Q7Z7E8) -0.017
TUBG1 (UniProt P23258) -0.066
UBE2E1 (UniProt P51965) 0.139
UCHL3 (UniProt P15374) 0.059
TUBB1 (UniProt Q9H4B7) -0.007
UBE2I (UniProt P63279) 0.001
TXLNA (UniProt P40222) 0.017
TTN isoform 12 (UniProt Q8WZ42) -0.059
UBR2 isoform 4 (UniProt Q8IWV8) -0.022
TUBGCP2 isoform 4 (UniProt Q9BSJ2) -0.016
TXNRD2 (UniProt Q9NNW7) -0.107
UAP1L1 (UniProt Q3KQV9) -0.034
TUT4 (UniProt Q5TAX3) -0.07
UCHL5 isoform 3 (UniProt Q9Y5K5) -0.008
TTPAL (UniProt Q9BTX7) -0.084
UBE2B (UniProt P63146) 0.022
UBE4B isoform 4 (UniProt O95155) -0.039
TUBGCP3 (UniProt Q96CW5) 0.045
TUBB (UniProt P07437) -0.009
UBE2V2 (UniProt Q15819) 0.021
UBXN1 (UniProt Q04323) -0.028
UBFD1 (UniProt O14562) -0.024
UBE2D1 (UniProt P51668) 0.073
UBQLN2 (UniProt Q9UHD9) -0.052
TUFM (UniProt P49411) 0.043
U2AF1 isoform 2 (UniProt Q01081) 0.016
TUBB3 (UniProt Q13509) -0.019
UBE2E3 (UniProt Q969T4) -0.01
UBC (UniProt P0CG48) 0.021

compound: CC(C)C1=C2N=C(C=C(N2N=C1)NCC3=CC=CC=C3)NCCCCCCN; assay: as above
How it was run: as §1

log2 fold change, inactive:
TXN2 (UniProt Q99757) 0.031
TWISTNB (UniProt Q3B726) 0.048
UBE2L3 isoform 3 (UniProt P68036) 0.017
UBE2R2 (UniProt Q712K3) 0.003
TXNL4A (UniProt P83876) -0.03
TXNRD1 (UniProt Q16881) -0.013
UBE2Q1 (UniProt Q7Z7E8) -0.011
TUBG1 (UniProt P23258) 0.023
UBE2E1 (UniProt P51965) 0
UCHL3 (UniProt P15374) 0
TUBB1 (UniProt Q9H4B7) 0
UBE2I (UniProt P63279) 0.03
TXLNA (UniProt P40222) 0.022
TTN isoform 12 (UniProt Q8WZ42) 0.014
UBR2 isoform 4 (UniProt Q8IWV8) -0.004
TUBGCP2 isoform 4 (UniProt Q9BSJ2) -0.006
TXNRD2 (UniProt Q9NNW7) 0
UAP1L1 (UniProt Q3KQV9) -0.01
TUT4 (UniProt Q5TAX3) 0.023
UCHL5 isoform 3 (UniProt Q9Y5K5) 0.015
TTPAL (UniProt Q9BTX7) -0.065
UBE2B (UniProt P63146) -0.031
UBE4B isoform 4 (UniProt O95155) -0.015
TUBGCP3 (UniProt Q96CW5) -0.039
TUBB (UniProt P07437) 0.037
UBE2V2 (UniProt Q15819) 0.005
UBXN1 (UniProt Q04323) -0.014
UBFD1 (UniProt O14562) -0.003
UBE2D1 (UniProt P51668) 0.01
UBQLN2 (UniProt Q9UHD9) 0.01
TUFM (UniProt P49411) 0.017
U2AF1 isoform 2 (UniProt Q01081) 0.013
TUBB3 (UniProt Q13509) 0.025
UBE2E3 (UniProt Q969T4) 0.02
UBC (UniProt P0CG48) 0.011
